Laboratory results as given in article PMC11585782, “The Plastidial Protein Acetyltransferase GNAT1 Forms a Complex With GNAT2, yet Their Interaction Is Dispensable for State Transitions” (Molecular & Cellular Proteomics : MCP, 2024).
Results are given in words; binding and its absence hold for the method and conditions named. Binding seen in cells or lysates may run through a third protein. Some entries that bind do so weakly or less than the wild type. Sequences can lack the tags named with a protein.

Chains of the proteins cited; added tags and fusions are not shown. Residues count along the entry.
UniProt Q7X9V3, residues 59-258: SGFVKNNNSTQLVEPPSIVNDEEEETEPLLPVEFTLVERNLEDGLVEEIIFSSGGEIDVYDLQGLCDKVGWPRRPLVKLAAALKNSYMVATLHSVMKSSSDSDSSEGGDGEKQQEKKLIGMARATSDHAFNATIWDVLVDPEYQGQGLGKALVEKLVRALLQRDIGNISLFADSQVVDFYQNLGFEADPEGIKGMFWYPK

How the values were obtained:
[1] = molecular target: T1, GNAT1-GFP (Arabidopsis thaliana) (UniProt Q9C666); assay: cross-linking; DSSO (12 mM, 1 h at 8 °C) added on the washed GFP-Trap beads of the GNAT-GFP pulldowns from leaf extract; cross-linked peptides identified by MS (XlinkX)
T1 sequence: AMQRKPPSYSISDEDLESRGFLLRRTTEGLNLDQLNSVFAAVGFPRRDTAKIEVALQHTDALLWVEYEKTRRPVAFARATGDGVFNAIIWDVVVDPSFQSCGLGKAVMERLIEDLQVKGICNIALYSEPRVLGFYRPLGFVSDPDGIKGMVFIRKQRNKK

[2] = molecular target: T2, GNAT3-GFP (Arabidopsis thaliana) (UniProt Q940H2); assay: as above
T2 sequence: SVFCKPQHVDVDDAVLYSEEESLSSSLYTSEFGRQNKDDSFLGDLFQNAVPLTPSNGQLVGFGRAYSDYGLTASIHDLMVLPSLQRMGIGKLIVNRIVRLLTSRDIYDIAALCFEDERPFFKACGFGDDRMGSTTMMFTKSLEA

GNAT2 (from UniProt Q7X9V3 59-258) (enzyme)
binding [1]: binds | binding [2]: binds
